Assay results reported in publication PMC12022261.
Results are given in words; binding and its absence hold for the method and conditions named. In cells and extracts the contact can be indirect. Some results given as binding are weak or reduced against the parent protein; the word gives no strength.

Sequences of proteins named here, by UniProt entry; tags and fusion partners are left off.
UniProt Q96QT4: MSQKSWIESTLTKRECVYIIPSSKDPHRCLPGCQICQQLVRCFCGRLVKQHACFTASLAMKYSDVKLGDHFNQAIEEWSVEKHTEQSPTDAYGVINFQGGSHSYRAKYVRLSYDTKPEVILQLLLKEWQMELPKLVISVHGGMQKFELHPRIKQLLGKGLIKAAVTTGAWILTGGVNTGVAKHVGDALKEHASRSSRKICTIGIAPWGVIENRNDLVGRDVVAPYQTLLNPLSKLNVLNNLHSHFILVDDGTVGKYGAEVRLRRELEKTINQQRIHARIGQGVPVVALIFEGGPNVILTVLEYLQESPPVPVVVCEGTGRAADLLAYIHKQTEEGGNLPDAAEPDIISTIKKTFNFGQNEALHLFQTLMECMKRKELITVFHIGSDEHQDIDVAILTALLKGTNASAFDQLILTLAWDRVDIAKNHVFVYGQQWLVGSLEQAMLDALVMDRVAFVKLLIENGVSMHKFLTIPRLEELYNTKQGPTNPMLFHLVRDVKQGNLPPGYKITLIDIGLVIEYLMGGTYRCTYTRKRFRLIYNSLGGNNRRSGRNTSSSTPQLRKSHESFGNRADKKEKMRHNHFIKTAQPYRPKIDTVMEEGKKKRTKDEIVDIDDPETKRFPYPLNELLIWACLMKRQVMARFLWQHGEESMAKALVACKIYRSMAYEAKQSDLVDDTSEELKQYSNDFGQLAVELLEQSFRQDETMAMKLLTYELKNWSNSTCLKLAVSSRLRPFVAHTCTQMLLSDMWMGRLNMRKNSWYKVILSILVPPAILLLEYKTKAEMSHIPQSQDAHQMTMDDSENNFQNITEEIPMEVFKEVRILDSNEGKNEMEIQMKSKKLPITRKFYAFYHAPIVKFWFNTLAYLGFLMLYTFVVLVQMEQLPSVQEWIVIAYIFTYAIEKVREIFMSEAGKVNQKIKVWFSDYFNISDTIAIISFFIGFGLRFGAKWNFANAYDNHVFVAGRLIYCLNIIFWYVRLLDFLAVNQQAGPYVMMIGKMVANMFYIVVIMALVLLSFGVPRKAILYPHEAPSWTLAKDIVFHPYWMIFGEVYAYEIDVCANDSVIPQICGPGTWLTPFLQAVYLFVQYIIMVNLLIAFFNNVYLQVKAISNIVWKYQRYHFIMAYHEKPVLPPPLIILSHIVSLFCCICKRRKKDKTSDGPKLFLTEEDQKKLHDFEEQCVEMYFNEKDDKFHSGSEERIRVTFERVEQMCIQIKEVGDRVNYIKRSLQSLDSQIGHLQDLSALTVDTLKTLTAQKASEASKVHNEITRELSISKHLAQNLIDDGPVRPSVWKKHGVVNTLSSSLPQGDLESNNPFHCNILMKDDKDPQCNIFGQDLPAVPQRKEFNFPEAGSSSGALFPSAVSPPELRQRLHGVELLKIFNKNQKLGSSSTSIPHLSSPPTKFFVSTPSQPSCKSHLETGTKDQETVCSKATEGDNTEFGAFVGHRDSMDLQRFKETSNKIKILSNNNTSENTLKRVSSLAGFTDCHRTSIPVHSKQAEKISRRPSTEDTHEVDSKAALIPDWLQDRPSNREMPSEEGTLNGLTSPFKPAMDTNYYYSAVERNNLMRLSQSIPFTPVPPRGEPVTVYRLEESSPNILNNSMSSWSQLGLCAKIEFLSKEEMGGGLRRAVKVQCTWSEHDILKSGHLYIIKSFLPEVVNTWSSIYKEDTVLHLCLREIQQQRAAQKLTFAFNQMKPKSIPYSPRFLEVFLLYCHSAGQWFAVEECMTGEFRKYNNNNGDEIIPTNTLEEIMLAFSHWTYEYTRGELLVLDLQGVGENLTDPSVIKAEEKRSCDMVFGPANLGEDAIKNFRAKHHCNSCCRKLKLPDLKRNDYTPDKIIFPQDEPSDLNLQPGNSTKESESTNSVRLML
UniProt P61586: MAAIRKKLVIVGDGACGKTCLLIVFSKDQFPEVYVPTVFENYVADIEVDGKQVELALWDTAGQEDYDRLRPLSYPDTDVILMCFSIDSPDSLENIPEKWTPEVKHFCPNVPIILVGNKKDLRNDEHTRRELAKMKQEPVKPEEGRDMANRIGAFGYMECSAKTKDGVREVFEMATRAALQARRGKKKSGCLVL

Target: Transient Receptor Potential Cation Channel Subfamily M Member 7 (TRPM7) (human (endogenous in PANC-1, MIA PaCa-2 and HPNE)) (UniProt Q96QT4)
Experiment: co-IP; PDAC cells (cell line not given, Fig. S1); co-immunoprecipitation of TRPM7 and RhoA

binding: binds
Substance: RhoA (from UniProt P61586 1-193)
